{"sequences": {"note": "The chains behind the UniProt entries cited, without tags or fusion partners. Where a name states a change or a piece, a line headed by the entry shows the natural chain unless it says otherwise.", "UniProt O94782": "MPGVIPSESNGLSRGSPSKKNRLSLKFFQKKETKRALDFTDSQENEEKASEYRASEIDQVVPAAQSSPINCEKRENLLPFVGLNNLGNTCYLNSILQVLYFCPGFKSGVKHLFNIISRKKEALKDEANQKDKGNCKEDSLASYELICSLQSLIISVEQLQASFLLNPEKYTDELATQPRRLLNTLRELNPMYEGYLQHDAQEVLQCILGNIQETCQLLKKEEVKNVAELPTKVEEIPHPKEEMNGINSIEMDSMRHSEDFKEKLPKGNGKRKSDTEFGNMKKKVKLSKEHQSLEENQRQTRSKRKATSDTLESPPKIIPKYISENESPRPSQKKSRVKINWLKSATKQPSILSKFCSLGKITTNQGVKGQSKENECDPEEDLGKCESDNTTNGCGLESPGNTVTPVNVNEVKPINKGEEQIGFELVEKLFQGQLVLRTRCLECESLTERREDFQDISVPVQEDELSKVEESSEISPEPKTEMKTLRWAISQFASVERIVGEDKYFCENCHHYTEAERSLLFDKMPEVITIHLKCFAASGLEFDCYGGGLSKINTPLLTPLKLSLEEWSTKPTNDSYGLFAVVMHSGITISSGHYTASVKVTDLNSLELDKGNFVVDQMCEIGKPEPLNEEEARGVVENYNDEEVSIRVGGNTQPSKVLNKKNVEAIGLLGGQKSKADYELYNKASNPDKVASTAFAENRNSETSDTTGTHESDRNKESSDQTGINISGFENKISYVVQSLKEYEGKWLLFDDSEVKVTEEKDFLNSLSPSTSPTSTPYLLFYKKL"}, "source": "PubChem BioAssay AID743255", "about": "(National Center for Advancing Translational Sciences (NCATS), 2014)", "note": "The campaign covered roughly 390,000 compounds. About 910 (0.23%) were called active. Inconclusive results, whose numbers are uncertain, are shown with a selection of clear calls. Calls come from the whole dose curve; as a rule, active = well fitted inhibition curve with a large enough effect; inconclusive = small, poorly fitted or top-dose-only effect; inactive = no such curve, though single readings can be large or run the other way. Potencies of inconclusive entries are doubtful fits and often do not repeat. Potency is the fitted concentration of half-maximal effect.", "data": [{"biological_target": "Ubiquitin carboxyl-terminal hydrolase 1 (Homo sapiens) (UniProt O94782)", "assay": "Inhibitors of USP1/UAF1: Primary Screen; note: nearly all actives have a fitted effect of over 60% in size", "conditions": "recombinant USP1/UAF1, Ub-Rhodamine cleavage fluorescence; series mostly up to 57.1 µM", "outline": "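1 nM enzyme complex + cpd, 15 min RT; start with Ub-Rho 150nM final; kinetic fluorescence ex 480/em 540, 6 reads q60 s. Buffer 50mM HEPES pH 7.8, 0.5mM EDTA, 0.1 mg/ml BSA, 1mM TCEP, 0.01% Tween-20.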", "values": [{"smiles": "CC(=O)Nc1ccc(S(=O)(=O)NCC(=O)NNC(=O)COc2c(C)cccc2C)cc1", "Potency": "inactive"}, {"smiles": "O=C(O)Cc1c[nH]c2ccc(O)cc12", "Potency": "inconclusive: 0.158 µM [inhibitor, full curve]"}, {"smiles": "CC(C)C[C@@]12C(=O)N(c3cccc(Br)c3)C(=O)N1[C@H](c1ccc(F)cc1)[C@@H]1C(=O)N(C3CCCCC3)C(=O)[C@@H]12", "Potency": "inconclusive: 44.7 µM [inhibitor, partial curve, poor fit]"}, {"smiles": "CCC(C)NC(=O)Cn1c(=O)n(CCCC(=O)NCc2ccc(C)cc2)c(=O)c2ccccc21", "note": "(centres undefined)", "Potency": "inconclusive: 112 µM [inhibitor, partial curve]"}, {"smiles": "COC(=O)C1=C(C(=O)OC)SC(=C2C(=S)C(C)(C)N(C(=O)C3CC3)c3ccccc32)S1", "Potency": "inactive"}, {"smiles": "COc1ccc(S(=O)(=O)Nc2ccc(-c3ccc4nncn4n3)cc2)c(OC)c1", "Potency": "inactive"}, {"smiles": "COC(=O)c1ccccc1NC(=O)CSc1nc(O)c(-c2ccccc2)c(=O)[nH]1", "Potency": "inconclusive: 39.8 µM [inhibitor, partial curve, poor fit]"}, {"smiles": "Cn1cnc(S(=O)(=O)N2CCC(C(=O)N3CCN(c4ccc(Cl)cc4)CC3)CC2)c1", "Potency": "inconclusive: 0.631 µM [inhibitor, full curve, poor fit]"}, {"smiles": "N#C/C(=C\\c1ccccc1)C(=O)Nc1sc2c(c1C(N)=O)CCC2", "Potency": "inactive"}, {"smiles": "COc1cc(CN2CCCC(C)C2)ccc1OCc1ccccc1", "note": "(centres undefined)", "Potency": "inconclusive: 31.6 µM [inhibitor, partial curve]"}, {"smiles": "Cc1ccc2nc(NS(=O)(=O)c3ccc(Cl)cc3)c(Nc3ccc(C(=O)O)cc3)nc2c1", "Potency": "inconclusive: 50.1 µM [inhibitor, partial curve]"}, {"smiles": "Fc1ccc2cnc(-c3ccccc3F)cc2c1", "Potency": "inconclusive: 5.62 µM [inhibitor, full curve]"}, {"smiles": "COc1cccc(-c2sc3ccc(OC)cc3c2-c2ccc(OCCN3CCCC3)cc2)c1", "Potency": "inconclusive: 28.2 µM [inhibitor, single point]"}, {"smiles": "CCC(C)Sc1cccc(-c2nc3ccc(Cl)cn3c2NCc2ccccc2)c1", "note": "(centres undefined)", "Potency": "inconclusive: 25.1 µM [inhibitor, single point]"}, {"smiles": "COc1ccc(-c2c3c(=O)n(C)c(=O)n(C)c3cn2NC(C)=O)cc1", "Potency": "inconclusive: 35.5 µM [inhibitor, single point]"}, {"smiles": "CCC1(c2ccc(F)cc2)NC(=O)N(CC(=O)Nc2ccc(C)c(S(=O)(=O)N3CCOCC3)c2)C1=O", "note": "(centres undefined)", "Potency": "inconclusive: 44.7 µM [inhibitor, partial curve, poor fit]"}, {"smiles": "COc1ccc(-c2csc(N3CCN(C(=O)c4ccco4)CC3)n2)cc1", "Potency": "inactive"}, {"smiles": "CC(Oc1cc2oc(=O)c3c(c2cc1Cl)CCCC3)C(=O)NCCN1CCOCC1", "note": "(centres undefined)", "Potency": "inactive"}, {"smiles": "CCOC(=O)c1ccc(N2CSC3=C(C#N)C(c4ccc(OC)cc4OC)CC(=O)N3C2)cc1", "note": "(centres undefined)", "Potency": "inconclusive: 2.24 µM [inhibitor, full curve, poor fit]"}, {"smiles": "Cn1c(NNC(=O)/C=C/c2ccc3c(c2)OCO3)cc(=O)n(C)c1=O", "Potency": "inactive"}, {"smiles": "COc1ccc(NC(=O)Nc2ccc3c(c2)C(=O)N([C@H](C)CO)C[C@H](C)[C@@H](CN(C)C(=O)Nc2c(C)noc2C)O3)cc1", "Potency": "inconclusive: 0.282 µM [inhibitor, full curve, poor fit]"}, {"smiles": "CC(C)(C)OC(=O)C[C@H]1C/C=C\\C[C@@H](CC(=O)N[C@@H](CO)Cc2ccccc2)C(=O)N2CCC[C@H]2COC1=O", "Potency": "inconclusive: 2.24 µM [inhibitor, full curve, poor fit]"}, {"smiles": "O=C(N/N=C/c1cccnc1)c1ccc(NC(=O)c2ccccc2Cl)cc1", "Potency": "inactive"}, {"smiles": "COC(=O)C1C(=O)c2c([nH]c(C(=O)OC3CCCCC3)c2C)CC1C", "note": "(centres undefined)", "Potency": "inconclusive: 39.8 µM [inhibitor, partial curve]"}, {"smiles": "CCCCCCCCCCCCCCCC(O)C[N+](C)(C)CCO", "note": "(centres undefined)", "Potency": "inconclusive: 35.5 µM [inhibitor, partial curve]"}, {"smiles": "O=C(COC(=O)c1ccc([N+](=O)[O-])o1)NCCc1ccccc1", "Potency": "inconclusive: 39.8 µM [inhibitor, partial curve, poor fit]"}, {"smiles": "COc1ccc(-c2cc(C(=O)Nc3ccccc3O)c3ccccc3n2)cc1", "Potency": "inconclusive: 5.62 µM [inhibitor, full curve, poor fit]"}, {"smiles": "CCC(/C=C1\\Sc2ccc(OC)cc2N1CCO)=C\\c1sc2ccc(OC)cc2[n+]1CCO", "Potency": "inactive"}, {"smiles": "Cn1ncc2c(Nc3cccc(Cl)c3)nc(Nc3cccc(Cl)c3)nc21", "Potency": "inactive"}, {"smiles": "O=C(CSc1nccn1Cc1ccc(F)cc1)Nc1ccc2c(c1)OCO2", "Potency": "inactive"}, {"smiles": "COc1ccc(/C=N/Nc2cc(C)nc(N3CCOCC3)n2)cc1", "Potency": "inconclusive: 44.7 µM [inhibitor, single point]"}, {"smiles": "COc1cc(C(=O)N2CCN(c3ccc(Nc4ccccc4)nn3)CC2)cc(OC)c1OC", "Potency": "inconclusive: 0.282 µM [inhibitor, full curve, poor fit]"}, {"smiles": "CCc1ccc(CN2CCC(n3nccc3NC(=O)c3ccccc3Cl)CC2)cc1", "Potency": "inactive"}, {"smiles": "COc1ccc(N2CCN(CCNC(=O)Nc3ccc(Cl)cc3)CC2)cc1", "Potency": "inactive"}, {"smiles": "O=C(c1ccccc1)C1N=NCC1c1ccc(Cl)cc1", "note": "(centres undefined)", "Potency": "inconclusive: 44.7 µM [inhibitor, partial curve, poor fit]"}, {"smiles": "COc1cc(OC)cc(C(=O)Nc2cccc(-c3cn4cccnc4n3)c2)c1", "Potency": "inconclusive: 8.91 µM [inhibitor, single point]"}, {"smiles": "COc1ccccc1NC(=O)N(Cc1ccco1)Cc1cc2ccc(C)c(C)c2[nH]c1=O", "Potency": "inconclusive: 50.1 µM [inhibitor, partial curve, poor fit]"}, {"smiles": "COc1ccc(S(=O)(=O)N2c3ccccc3OCC2C)cc1", "note": "(centres undefined)", "Potency": "inconclusive: 7.08 µM [inhibitor, full curve, poor fit]"}, {"smiles": "CN1c2ccccc2N(C)C1(C)c1ccccc1", "Potency": "inconclusive: 39.8 µM [inhibitor, partial curve]"}, {"smiles": "COc1ccc(N2CC(NC(=O)COc3ccc4ccccc4c3)CC2=O)cc1", "note": "(centres undefined)", "Potency": "inconclusive: 22.4 µM [inhibitor, partial curve]"}, {"smiles": "CSc1ncnc2c1ncn2CCCN(C)CCc1ccccn1", "Potency": "inconclusive: 0.794 µM [inhibitor, full curve]"}, {"smiles": "COc1cccc(CNC(=O)c2ccc3c(c2)nc2n3CCCCC2)c1OC", "Potency": "inactive"}, {"smiles": "CCOC(=O)C1(CCOc2ccccc2)CCN(Cc2ccc(OCCO)cc2)CC1", "Potency": "inactive"}, {"smiles": "CCOc1ccccc1NC(=O)CN1CCCN(Cc2cccc(Cl)c2)S1(=O)=O", "Potency": "inconclusive: 5.01 µM [inhibitor, partial curve, poor fit]"}, {"smiles": "CCCCNc1c(-c2ccc(SC3CCCCC3)c(OC)c2)nc2ccc(C)cn12", "Potency": "inconclusive: 14.1 µM [inhibitor, partial curve]"}, {"smiles": "Cc1cc(C)n2nc(SCC(=O)Nc3ccc(F)cc3)nc2n1", "Potency": "inconclusive: 7.94 µM [inhibitor, single point]"}, {"smiles": "Cc1ccc2c(c1C)NC(C(=O)O)C1CC=CC21", "note": "(centres undefined)", "Potency": "inconclusive: 1.12 µM [inhibitor, full curve, poor fit]"}, {"smiles": "N#CC1=C(SCc2ccccc2)NC(=O)CC1c1cccc(O)c1", "note": "(centres undefined)", "Potency": "inconclusive: 4.47 µM [inhibitor, partial curve]"}, {"smiles": "O=C(Cc1ccccc1F)N1CCC(c2nc3c(nnn3Cc3ccc(F)cc3)c(=O)[nH]2)CC1", "Potency": "inconclusive: 1.12 µM [inhibitor, full curve]"}, {"smiles": "NC(=O)C(C(=O)/C=C/c1ccc(Cl)cc1)=C1SCCS1", "Potency": "inactive"}, {"smiles": "COc1ccccc1NS(=O)(=O)c1cc(NC(=O)C2CCCC2)ccc1N1CCOCC1", "Potency": "inactive"}, {"smiles": "Cc1c(C(=O)N(Cc2ccc(Cl)cc2)CC2CCCO2)oc2ccc(F)cc12", "note": "(centres undefined)", "Potency": "inconclusive: 0.891 µM [inhibitor, full curve, poor fit]"}, {"smiles": "CCCCC[C@H](O)/C=C/C1C(=O)C=C[C@H]1C/C=C\\CCCC(=O)OC", "note": "(some centres undefined)", "Potency": "inconclusive: 44.7 µM [inhibitor, partial curve, poor fit]"}, {"smiles": "O=C(NCc1ccccc1)c1ccc2nc(-c3ccco3)c(-c3ccco3)nc2c1", "Potency": "inconclusive: 25.1 µM [inhibitor, partial curve]"}, {"smiles": "NC(=O)c1nsc(C(=O)N(CCc2ccccc2)C(C(=O)NC2CCCC2)c2ccco2)c1N", "note": "(centres undefined)", "Potency": "inconclusive: 39.8 µM [inhibitor, partial curve, poor fit]"}, {"smiles": "COc1ccc2c(c1)-c1nc(NC(=O)c3ccc(C)cc3)sc1CC2", "Potency": "inconclusive: 50.1 µM [inhibitor, partial curve, poor fit]"}, {"smiles": "NC(=S)n1[nH]c(-c2ccc([N+](=O)[O-])cc2)c(N=Nc2ccc(Cl)cc2)c1=O", "Potency": "inactive"}, {"smiles": "CCCCN=C(NNc1ccc(Br)cc1)C(=O)OCC", "Potency": "inconclusive: 50.1 µM [inhibitor, partial curve, poor fit]"}, {"smiles": "O=C(c1ccc([N+](=O)[O-])cc1)N1CCSC1c1ccc(Br)cc1", "note": "(centres undefined)", "Potency": "inactive"}, {"smiles": "CC(C)c1ccc(NS(=O)(=O)c2ccc3[nH]cc(C(=O)N4CCCC4)c(=O)c3c2)cc1", "Potency": "inconclusive: 0.891 µM [inhibitor, partial curve]"}, {"smiles": "COc1ccc(C(=O)O)cc1S(=O)(=O)Nc1ccc(N2CCCCC2)cc1", "Potency": "inconclusive: 0.251 µM [inhibitor, full curve, poor fit]"}, {"smiles": "COc1ccc(Cl)cc1-c1nc(-c2ccc(Br)o2)no1", "Potency": "inconclusive: 0.282 µM [inhibitor, full curve, poor fit]"}, {"smiles": "COc1ccc(OC(C)c2nc3ccccc3[nH]2)cc1", "note": "(centres undefined)", "Potency": "inconclusive: 10 µM [inhibitor, full curve, poor fit]"}, {"smiles": "CC(=O)c1cccc(N=Nc2c(C)[nH]c3ccccc23)c1", "Potency": "inactive"}]}]}
